{"source": "patent US9765069B2", "about": "“Antimicrobial compounds” (OXFORD UNIVERSITY INNOVATION LIMITED, priority 2012, dated 2017)", "test": "ratio of plasma protein binding", "format": "in vitro ADME", "note": "At least one structure is not confirmed: it was looked up by name or label, or the drawing left a doubt.", "data": [{"compound": "CCCCCCC(=O)N1CC(=O)C(=C(O)CC(C)CC(C)(C)C)C1=O", "note": "(stereo not shown) [27h]", "values": [{"measurement": "PPB (%)", "result": 91.9, "unit": "%"}]}]}
